# Measurements reported in PubChem BioAssay AID504786 (Drosophila RNAi Screening Center, 2011)
# Screen: 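Knock-downs reducing HIF reporter induction by the iron chelator DFO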 (primary screen)
# Cell system: Drosophila S2 cells with a stable HIF luciferase reporter
# Reagent: long dsRNA against Drosophila genes, about 0.2 µg dsRNA per well of a 384-well plate
# Time to read-out: three days of knock-down, then 20 h of DFO before reading
# Challenge: desferrioxamine (DFO) at 100 µM, an iron chelator that mimics hypoxia, for 20 h
# Read-out: 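Firefly luciferase driven by the mouse ldh-a hypoxia-response element, measured after 20 h of 100 µM DFO; z-scores per plate, higher means more signal lost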
# Scale: z-score: higher = stronger loss of HIF reporter signal
# The screen tested about 21,000 reagents; shown is a random part of those that have a named target and a result. 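Primary screen; positive scores mean lost reporter signal, so the sign may be inverted from the usual convention.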 Names joined by + are all predicted targets of the reagent.
Gene,dsRNA,"z-score, replicate 1","z-score, replicate 2","z-score, replicate 3","z-score, replicate 4"
Dcr-1 (GeneID 42693),DRSC15646,-0.3,-0.1,,
CR31824 (GeneID 10178848),DRSC01517,0,-0.2,,
ms(3)76Cc (GeneID 40142),DRSC11071,-0.3,-0.3,,
Smg5 (GeneID 34804),DRSC03124,0.6,0,,
CG4836 (GeneID 42387),DRSC15659,-0.2,-0.7,,
CG3342 (GeneID 31586),DRSC18304,-0.4,-0.1,,
sc (GeneID 30982),DRSC18830,-0.4,-0.5,,
CG15048 (retired record) (GeneID 32842),DRSC19624,0.1,0.4,,
MFS14 (GeneID 46085),DRSC06524,-0.2,-0.4,,
CG7365 (GeneID 40200),DRSC10824,-0.4,-0.7,,
pad (GeneID 41981),DRSC14227,-0.4,-0.2,,
CG31058 (retired record) (GeneID 43320),DRSC15840,-0.5,0.1,,
Gr33a (GeneID 34641),DRSC02589,-0.3,0.1,,
sit (GeneID 42658),DRSC15760,-0.1,0.3,,
Atf-2 (GeneID 37978),DRSC04130,0,0,,
Atf-2 (GeneID 37978),DRSC04413,0.1,-0.4,,
Pus1 (GeneID 42440),DRSC15548,0.1,-0.3,,
Pex16 (GeneID 40293),DRSC11750,-0.3,-0.6,,
CG11779 + CG5835,DRSC15886,-0.8,-0.2,,
CG33978 (GeneID 3885646),DRSC17106,-0.2,-0.2,,
Muc96D (GeneID 318737),DRSC13709,-0.5,0.2,-0.2,-0.3
CG5167 (GeneID 41521),DRSC15728,-0.3,-0.5,,
mav (GeneID 43804),DRSC17149,-0.3,-0.5,,
soti (GeneID 41748),DRSC16432,-0.3,-0.3,,
not (GeneID 40030),DRSC11378,-0.4,-0.5,,
CG14073 (GeneID 40046),DRSC10078,-0.3,-0.2,,
Cdk9 (GeneID 37586),DRSC04601,2.1,1.8,,
CG6230 (GeneID 34546),DRSC01989,-0.3,-0.5,,
CG14864 (GeneID 41846),DRSC14987,-0.3,-0.1,,
CCT4 (GeneID 34674),DRSC02865,-0.2,2.6,,
CG31886 (GeneID 326170),DRSC03248,-0.4,-0.7,,
CG12986 (GeneID 32759),DRSC19506,-0.1,-0.6,,
pyd (GeneID 41062),DRSC12712,-0.5,-0.4,0.3,-0.2
pyd (GeneID 41062),DRSC14387,-0.4,-0.6,,
pyd (GeneID 41062),DRSC14445,-0.2,1,,
pyd (GeneID 41062),DRSC14509,0,-0.1,,
pyd (GeneID 41062),DRSC16547,-0.4,-1,,
pyd (GeneID 41062),DRSC16548,-0.1,-0.1,,
pyd (GeneID 41062),DRSC17041,-0.3,-0.7,,
bocks (GeneID 41162),DRSC16489,-0.3,-0.5,,
Prosap (GeneID 50225),DRSC06382,-0.4,-0.4,,
Prosap (GeneID 50225),DRSC07081,-0.3,-0.8,,
DIP1 (GeneID 43981),DRSC20818,0,-0.2,,
dup (GeneID 47121),DRSC07088,4.5,4.9,,
Yeti (GeneID 7354404),DRSC21138,0.6,1.3,,
CG7900 (GeneID 40957),DRSC16336,-0.3,-0.4,-0.6,-0.1
CG18599 (GeneID 42191),DRSC15357,-0.5,-1,-0.1,-0.2
CG4627 (GeneID 36457),DRSC06873,-0.5,-0.6,,
CG9368 (GeneID 40135),DRSC11067,-0.3,-0.6,,
CG14269 (GeneID 31312),DRSC17912,-0.3,0.9,,
yps (GeneID 39377),DRSC11411,-0.2,-0.6,,
MCPH1 (GeneID 36272),DRSC06309,-0.2,-0.5,,
MCPH1 (GeneID 36272),DRSC07308,-0.2,-0.6,,
Tif-IA (GeneID 35454),DRSC03717,-0.1,0,,
Tif-IA (GeneID 35454),DRSC03726,0,1.5,,
CG8950 (GeneID 36921),DRSC07300,-0.2,-0.3,,
NiPp1 (GeneID 44748),DRSC07307,-0.2,0,,
CG13160 (GeneID 36343),DRSC06284,-0.4,-0.2,,
nkt (GeneID 39264),DRSC10144,-0.3,-0.3,,
CG11262 (GeneID 39471),DRSC09831,-0.3,-0.4,,
Trxr2 (GeneID 40475),DRSC11900,-0.3,-0.3,,
CG15597 (GeneID 40767),DRSC12283,-0.2,-0.1,,
CG10433 (GeneID 37458),DRSC04068,-0.3,-0.3,,
Ripalpha (GeneID 34351),DRSC02657,-0.4,-0.1,,
COX2 (retired record) (GeneID 192470),DRSC21276,-0.3,-0.2,,
Vps37B (GeneID 40624),DRSC12165,-0.2,0.4,,
Amy-d (GeneID 36932),DRSC05919,-0.4,-0.9,,
spartin (GeneID 40582),DRSC12187,-0.3,-0.6,,
BaraB (GeneID 35894),DRSC06420,-0.3,0,,
Rab6 (GeneID 34636),DRSC03404,-0.3,-0.3,,
CG9570 (GeneID 33009),DRSC20687,-0.5,-0.9,,
CG10237 (GeneID 35222),DRSC02029,-0.2,-0.1,,
CG6813 (GeneID 41396),DRSC16122,-0.3,-0.2,,
PheRS-m (GeneID 36547),DRSC05915,-0.3,-0.2,,
CG6191 (GeneID 36513),DRSC05938,-0.3,-0.8,,
thoc7 (GeneID 38033),DRSC08512,-0.3,-0.4,,
CG32988 (GeneID 318274),DRSC02692,-0.2,0,,
CG14860 (GeneID 41803),DRSC14983,-0.4,-0.6,,
CG3081 (GeneID 31395),DRSC18571,-0.2,-0.2,,
CG14312 (GeneID 42195),DRSC14791,-0.4,-0.2,,
CG13042 (GeneID 39798),DRSC09923,-0.1,-0.2,,
CG13471 (GeneID 39604),DRSC10015,0.2,0.5,,
Socs44A (GeneID 35786),DRSC06828,-0.1,-0.3,,
CG17344 (GeneID 35185),DRSC02607,-0.2,-0.4,,
CG2145 (GeneID 32027),DRSC19835,-0.3,-0.5,,
GV1 (GeneID 38238),DRSC08228,-0.2,-0.4,,
ms(3)K81 (GeneID 43232),DRSC14746,-0.3,0,,
Atg17 (GeneID 40700),DRSC12221,-0.3,-1.2,,
Zip88E (GeneID 41847),DRSC15562,-0.2,-0.4,,
Cpr65Ec (GeneID 38775),DRSC11025,-0.4,-0.6,,
Pef (GeneID 36111),DRSC06695,-0.4,-0.5,,
TRAM (GeneID 31042),DRSC18178,-0.2,-0.3,,
TRAM (GeneID 31042),DRSC18651,-0.1,0,,
CG31269 (GeneID 318653),DRSC15744,-0.4,0.1,,
Pp1alpha-96A (GeneID 42922),DRSC16795,-0.3,-0.1,,
Spn42Dc (GeneID 35600),DRSC05010,-0.2,0.3,,
CG7458 (GeneID 40441),DRSC11829,-0.4,-0.6,0.3,-0.2
Not10 (GeneID 41552),DRSC14129,-0.4,-0.5,,
beta4GalNAcTA (GeneID 36585),DRSC05944,-0.6,-0.4,,
CG9356 (GeneID 41122),DRSC16476,-0.4,-0.6,,
CG13331 (GeneID 36503),DRSC06366,-0.4,-0.3,,
Mybbp1A (GeneID 31010),DRSC18788,-0.3,-0.3,,
eIF2Bepsilon (GeneID 31156),DRSC18769,-0.2,-0.9,,
CG5516 (GeneID 41940),DRSC15826,0.2,-0.3,,
Phb1 (GeneID 49168),DRSC03563,0,0.1,,
Galphas (GeneID 37805),DRSC04616,-0.3,-0.6,,

Only “z-score, replicate 2” (13 entries from above):
Cpr65Ec (GeneID 38775) [DRSC11025] = -0.6
Pef (GeneID 36111) [DRSC06695] = -0.5
TRAM (GeneID 31042) [DRSC18178] = -0.3
TRAM (GeneID 31042) [DRSC18651] = 0
CG31269 (GeneID 318653) [DRSC15744] = 0.1
Pp1alpha-96A (GeneID 42922) [DRSC16795] = -0.1
Spn42Dc (GeneID 35600) [DRSC05010] = 0.3
CG7458 (GeneID 40441) [DRSC11829] = -0.6
Not10 (GeneID 41552) [DRSC14129] = -0.5
beta4GalNAcTA (GeneID 36585) [DRSC05944] = -0.4
CG9356 (GeneID 41122) [DRSC16476] = -0.6
CG13331 (GeneID 36503) [DRSC06366] = -0.3
Mybbp1A (GeneID 31010) [DRSC18788] = -0.3
